Test results published in US20240092884A1.
Results are given in words; binding and its absence hold for the method and conditions named. Binding can be weak; no strength is given.

Molecular target: ANGPTL3-FLD-biotin (human)
Test: competitive ELISA: integrin αvβ3 coated at 1 µg/mL, antibody titrated in 0.16 µg/mL ANGPTL3-FLD-biotin; blocked partner: integrin αvβ3; OD450

- binding: binds
B1: anti-ANGPTL3 monoclonal antibody (prepared in Example 2) (antibody, IgG1, V domains shown)
VH: QVQLKESGPGLVAPSQSLSITCTVSGFSLTTYGVSWVRQPPGKGLEWLGVIWGDGNTNYHSALISRLSISKDNSKSQVFLKLNSLQTDDTATYYCAKGGPYGNYVPFDYWGQGTTLTVSS
VL: DIVLTQSPASLAVSLGQRATISCRASESVDSYGNSFMHWYQQKPGQPPKLLIYRASNLESGIPARFSGSGSRTDFTLTINPVEADDVATYYCQQSDEEPPTFGGGTNLEIK
